PubChem BioAssay AID330 (DTP/NCI, 2004)
The list does not hold the whole screen: it is rich in T/C values a quarter to a half above the control, in often repeated tests (any T/C) and in doses without a T/C. Further doses and runs are listed elsewhere. T/C: endpoint of the treated group in % of that of the vehicle group. Some doses have a count of surviving animals in place of a T/C: the source holds a T/C of zero for them, seemingly a mark for toxic or unscored doses. Some survivor counts are full or nearly so, which does not show that the dose was tolerated: survival well below the control is almost never listed, so the zero probably covers shortened survival too. Counts of survivors are from the toxicity check (mostly the fifth day) where no day follows; animals may have died later. Schedule codes are those of the source, read here as Q, the interval in days (D) or hours (H), X, the number of doses. For survival time, the PubChem record calls one and a half times the control and up active, and a quarter to a half above the control has no call in these data; cut-offs in other NCI protocols can differ. Some T/C values are followed by the survivors on the day toxicity was checked, most often the fifth; without a count, all were alive then. Some entries hold several experiments; the values are given in rising order.

System: P388 leukemia ip, CD2F1 mice, survival T/C
Test: NCI In Vivo Anticancer Drug Screen. Data for tumor model P388 Leukemia (intraperitoneal) in CD2F1 (CDF1) mice
Conditions: T/C endpoint: median survival time, higher T/C = longer survival
[1] = dose: 100.0 mg/kg/injection, schedule: Q01DX009 (ip), vehicle: Klucel (hydroxypropylcellulose) (HPC)
[2] = dose: 240.0 mg/kg/injection, schedule: Q01DX005 (ip), vehicle: saline with Tween-80

c1ccc(-c2n[se]c(-c3ccccc3)n2)cc1
survivor count (dose: 100.0 mg/kg/injection, schedule: Q04DX002 (ip), vehicle: saline with Tween-80): 6 of 6
survivor count (dose: 200.0 mg/kg/injection, schedule: Q04DX002 (ip), vehicle: saline with Tween-80): 3 of 6
survivor count (dose: 400.0 mg/kg/injection, schedule: Q04DX002 (ip), vehicle: saline with Tween-80): 0 of 6

C=C(CN1CCOCC1)C(=O)c1ccccc1
survivor count (dose: 15.0 mg/kg/injection, schedule: Q01DX005 (ip), vehicle: saline): 0 of 6
survivor count (dose: 30.0 mg/kg/injection, schedule: Q01DX005 (ip), vehicle: saline): 0 of 6

CCCCN1CCC(CNc2ccnc3cc(Cl)ccc23)C1 (configuration not stated)
survivor count (dose: 100.0 mg/kg/injection, schedule: Q01DX005 (ip), vehicle: saline with Tween-80): 0 of 6
survivor count (dose: 200.0 mg/kg/injection, schedule: Q01DX005 (ip), vehicle: saline with Tween-80): 0 of 6

CCOc1ccccc1/C=N\NC(=O)C(=O)N/N=C\c1ccccc1OCC
survivor count (dose: 12.5 mg/kg/injection, schedule: Q01DX009 (ip), vehicle: Klucel (hydroxypropylcellulose) (HPC)): 6 of 6
survivor count (dose: 25.0 mg/kg/injection, schedule: Q01DX009 (ip), vehicle: Klucel (hydroxypropylcellulose) (HPC)): 6 of 6
survivor count (dose: 50.0 mg/kg/injection, schedule: Q01DX009 (ip), vehicle: Klucel (hydroxypropylcellulose) (HPC)): 6 of 6
survivor count [1]: 6 of 6

CC(=O)Oc1cccc2c1C(=O)c1c(OC(C)=O)cccc1C2=O
survivor count [1]: 6 of 6

C/C=C1\CC2(OC1=O)C(=O)NC(=O)NC2=O
survivor count (dose: 200.0 mg/kg/injection, schedule: Q01DX009 (ip), vehicle: saline): 5 of 6

CC1OC(C)(C2CC2)OC1C (configuration not stated)
survivor count (dose: 400.0 mg/kg/injection, schedule: Q04DX003 (ip), vehicle: Klucel (hydroxypropylcellulose) (HPC)): 0 of 6

c1ccc(Cn2cccc/c2=N/C(=NC2CCCCC2)NC2CCCCC2)cc1
survivor count (dose: 12.5 mg/kg/injection, schedule: Q01DX001 (ip), vehicle: Klucel (hydroxypropylcellulose) (HPC)): 6 of 6
survivor count (dose: 50.0 mg/kg/injection, schedule: Q01DX001 (ip), vehicle: Klucel (hydroxypropylcellulose) (HPC)): 1 of 6
survivor count (dose: 100.0 mg/kg/injection, schedule: Q01DX001 (ip), vehicle: Klucel (hydroxypropylcellulose) (HPC)): 3 of 6
survivor count (dose: 200.0 mg/kg/injection, schedule: Q01DX001 (ip), vehicle: Klucel (hydroxypropylcellulose) (HPC)): 1 of 6
survivor count (dose: 400.0 mg/kg/injection, schedule: Q01DX001 (ip), vehicle: Klucel (hydroxypropylcellulose) (HPC)): 0 of 6

CCCCCCOC(=O)C(O)c1ccccc1 (configuration not stated)
survivor count (dose: 400.0 mg/kg/injection, schedule: Q01DX009 (ip), vehicle: saline with Tween-80): 5 of 6

CCOC(=O)c1nc(SC)sc1N
survivor count [2]: 1 of 6

Cc1nc2cc[nH]n2c(=O)c1CCc1ccccc1
survivor count [2]: 6 of 6

CC(C)[C@](O)(C(=O)OCC1=CCN2CC[C@@H](O)[C@@H]12)[C@H](C)O
T/C (dose: 25.0 mg/kg/injection, schedule: Q01DX009 (ip), vehicle: water): 128 % of control
T/C (dose: 400.0 mg/kg/injection, schedule: Q01DX009 (ip), vehicle: water): 128 and 133 % of control [5 of 6 alive]
survivor count (dose: 800.0 mg/kg/injection, schedule: Q01DX009 (ip), vehicle: saline): 0 of 6
survivor count (dose: 800.0 mg/kg/injection, schedule: Q01DX009 (ip), vehicle: water): 0 of 6
survivor count (dose: 1600.0 mg/kg/injection, schedule: Q01DX009 (ip), vehicle: distilled water + Tween-80): 0 of 6
